Measurements from the supplement of paper PMC8728848.
The other results are listed elsewhere or left out.

How the values were obtained:
Assay in all cases: glycan array binding signal (z-score within array); higher = stronger binding
Settings in all cases: glycan notation: IUPAC condensed, linker removed
[1] = target: GlcNAc(b1-3)Gal(b1-4)GlcNAc(b1-3)Gal(b1-4)GlcNAc
Summary of the method: (§1)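 The binding signal is a Z-score computed within each array. Data were drawn from 3228 arrays in the Consortium for Functional Glycomics database, restricted to those with a known protein sequence. Scores were averaged over arrays of the same protein sequence at different concentrations or buffers, and over linkers, and negative values can be taken as non-binding.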

GlcNAc(b1-3)GalNAc = target: GlcNAc(b1-3)GalNAc
Summary of the method: as §1

GlcNAc(b1-3)Man = target: GlcNAc(b1-3)Man
Summary of the method: as §1

[2] = target: GlcNAc(b1-3)[GlcNAc(b1-4)][GlcNAc(b1-6)]GlcNAc
Summary of the method: as §1

[3] = target: GlcNAc(b1-3)[GlcNAc(b1-6)]Gal(b1-4)GlcNAc
Summary of the method: as §1

[4] = target: GlcNAc(b1-3)[GlcNAc(b1-6)]GalNAc
Summary of the method: as §1

[5] = target: GlcNAc(b1-4)Gal(b1-4)GlcNAc
Summary of the method: as §1

GlcNAc(b1-4)GlcNAc = target: GlcNAc(b1-4)GlcNAc
Summary of the method: as §1

[6] = target: GlcNAc(b1-4)GlcNAc(b1-4)GlcNAc
Summary of the method: as §1

[7] = target: GlcNAc(b1-4)GlcNAc(b1-4)GlcNAc(b1-4)GlcNAc(b1-4)GlcNAc
Summary of the method: as §1

[8] = target: GlcNAc(b1-4)GlcNAc(b1-4)GlcNAc(b1-4)GlcNAc(b1-4)GlcNAc(b1-4)GlcNAc
Summary of the method: as §1

[9] = target: GlcNAc(b1-4)[GlcNAc(b1-6)]GalNAc
Summary of the method: as §1

[10] = target: GlcNAc(b1-6)Gal(b1-4)GlcNAc
Summary of the method: as §1

GlcNAc(b1-6)GalNAc = target: GlcNAc(b1-6)GalNAc
Summary of the method: as §1

GlcNAc3Prop(b1-4)GlcNAc = target: GlcNAc3Prop(b1-4)GlcNAc
Summary of the method: as §1

[11] = target: GlcNAc6S(b1-3)Gal(b1-4)GlcNAc
Summary of the method: as §1

Kdn(a2-3)Gal(b1-3)GalNAc = target: Kdn(a2-3)Gal(b1-3)GalNAc
Summary of the method: as §1

Kdn(a2-3)Gal(b1-3)GlcNAc = target: Kdn(a2-3)Gal(b1-3)GlcNAc
Summary of the method: as §1

Kdn(a2-3)Gal(b1-4)Glc = target: Kdn(a2-3)Gal(b1-4)Glc
Summary of the method: as §1

Kdn(a2-3)Gal(b1-4)GlcNAc = target: Kdn(a2-3)Gal(b1-4)GlcNAc
Summary of the method: as §1

[12] = target: Kdn(a2-3)Gal(b1-4)[Fuc(a1-3)]GlcNAc
Summary of the method: as §1

Kdn(a2-6)Gal(b1-4)GlcNAc = target: Kdn(a2-6)Gal(b1-4)GlcNAc
Summary of the method: as §1

[13] = target: Man(a1-2)Man(a1-2)Man(a1-3)Man
Summary of the method: as §1

[14] = target: Man(a1-2)Man(a1-2)Man(a1-6)[Man(a1-3)]Man
Summary of the method: as §1

Man(a1-2)Man(a1-3)Man = target: Man(a1-2)Man(a1-3)Man
Summary of the method: as §1

[15] = target: Man(a1-2)Man(a1-3)[Man(a1-2)Man(a1-6)]Man
Summary of the method: as §1

[16] = target: Man(a1-2)Man(a1-3)[Man(a1-2)Man(a1-6)]Man(a1-6)[Man(a1-2)Man(a1-2)Man(a1-3)]Man
Summary of the method: as §1

[17] = target: Man(a1-2)Man(a1-3)[Man(a1-2)Man(a1-6)]Man(a1-6)[Man(a1-2)Man(a1-2)Man(a1-3)]Man(b1-4)GlcNAc(b1-4)GlcNAc
Summary of the method: as §1

[18] = target: Man(a1-2)Man(a1-3)[Man(a1-6)]Man(a1-6)[Man(a1-2)Man(a1-3)]Man(b1-4)GlcNAc(b1-4)GlcNAc
Summary of the method: as §1

[19] = target: Man(a1-2)Man(a1-6)[Man(a1-3)]Man(a1-6)[Man(a1-2)Man(a1-2)Man(a1-3)]Man
Summary of the method: as §1

[20] = target: Man(a1-2)Man(a1-6)[Man(a1-3)]Man(a1-6)[Man(a1-2)Man(a1-2)Man(a1-3)]Man(b1-4)GlcNAc(b1-4)GlcNAc
Summary of the method: as §1

Man(a1-3)[Man(a1-6)]Man = target: Man(a1-3)[Man(a1-6)]Man
Summary of the method: as §1

[21] = target: Man(a1-3)[Man(a1-6)]Man(a1-6)[Man(a1-2)Man(a1-3)]Man(b1-4)GlcNAc(b1-4)GlcNAc
Summary of the method: as §1

[22] = target: Man(a1-3)[Man(a1-6)]Man(a1-6)[Man(a1-3)]Man
Summary of the method: as §1

[23] = target: Man(a1-3)[Man(a1-6)]Man(a1-6)[Man(a1-3)]Man(b1-4)GlcNAc(b1-4)GlcNAc
Summary of the method: as §1

[24] = target: Man(a1-3)[Man(a1-6)]Man(b1-4)GlcNAc(b1-4)GlcNAc
Summary of the method: as §1

Man(a1-6)Man = target: Man(a1-6)Man
Summary of the method: as §1

Man(b1-4)GlcNAc = target: Man(b1-4)GlcNAc
Summary of the method: as §1

Neu5Ac(a2-3)Gal = target: Neu5Ac(a2-3)Gal
Summary of the method: as §1

[25] = target: Neu5Ac(a2-3)Gal(b1-3)GalNAc
Summary of the method: as §1

[26] = target: Neu5Ac(a2-3)Gal(b1-3)GalNAc(b1-3)Gal(a1-4)Gal(b1-4)Glc
Summary of the method: as §1

[27] = target: Neu5Ac(a2-3)Gal(b1-3)GalNAc(b1-4)[Neu5Ac(a2-3)]Gal(b1-4)Glc
Summary of the method: as §1

[28] = target: Neu5Ac(a2-3)Gal(b1-3)GalNAc6S
Summary of the method: as §1

[29] = target: Neu5Ac(a2-3)Gal(b1-3)GlcNAc
Summary of the method: as §1

[30] = target: Neu5Ac(a2-3)Gal(b1-3)GlcNAc(b1-2)Man(a1-3)[Neu5Ac(a2-3)Gal(b1-3)GlcNAc(b1-2)Man(a1-6)]Man(b1-4)GlcNAc(b1-4)GlcNAc
Summary of the method: as §1

B1: SspB (Streptococcus gordonii), P16952 (protein)
chain: MKNKKEVYGFRKSKVAKTLCGAVLGTALIAFADKAVFADEVTETTSTSTVEVATTGNPATNLPEAQGEMSQVAKESQAKAGSKESALPVEVSSADLDKAVADAKSAGVKVVQDETKDKGTATTATDNAQKQDEIKSDYAKQAEEIKTTTEAYKKEVAAHQAETDKINAENKAADDKYQKDLKSHQEEVEKINTANATAKAEYEAKLAQYQKDLATVKKANEDSQQDYQNKLSAYQTELARVQKANAEAKEAYEKAVKENTAKNEALKVENEAIKQRNETAKATYEAAMKQYEADLAAIKKANEDNDADYQAKLAAYQTELARVQKANAEAKEAYDKAVKENTAKNTAIQAENEAIKQRNETAKATYDAAVKKYEADLAAVKQANATNEADYQAKLAAYQTELARVQKANADAKATYEKAVEDNKAKNAAIKAENEEIKQRNAVAKTDYEAKLAKYEADLAKYKKEFAAYTAALAEAESKKKQDGYLSEPRSQSLNFKSEPNAIRTIDSSVHQYGQQELDALVKSWGISPTNPDRKKSRAYSYFNAINSNNTYAKLVLEKDKPVDVTYTGLKNSSFNGKKISKVVYTYTLKETGFNDGTKMTMFASSDPTVTAWYNDYFTSTNINVKVKFYDEEGQLMNLTGGLVNFSSLNRGNGSGAIDKDAIESVRNFNGRYIPISGSSIKIHENNSAYADSSNAEKSLGARWNTSEWDTTSSPNNWYGAIVGEITQSEISFNMASSKSGNIWFAFNSNINAIGVPTKPVAPTAPTQPMYETEKPLEPAPVAPSYENEPTPPVKTPDQPEPSKPEEPTYETEKPLEPAPVAPSYENEPTPPVKTPDQPEPSKPEEPNYETEKPLEPAPVAPSYENEPTPPVKIPDQPEPSKPEEPTYDPLPTPPLAPTPKQLPTPPVVPTVHFHYSSLLAQPQINKEIKNEDGVDIDRTLVAKQSIVKFELKTEALTAGRPKTTSFVLVDPLPTGYKFDLDATKAASTGFDTTYDEASHTVTFKATDETLATYNADLTKPVETLHPTVVGRVLNDGATYTNNFTLTVNDAYGIKSNVVRVTTPGKPNDPDNPNNNYIKPTKVNKNKEGLNIDGKEVLAGSTNYYELTWDLDQYKGDKSSKEAIQNGFYYVDDYPEEALDVRPDLVKVADEKGNQVSGVSVQQYDSLEAAPKKVQDLLKKANITVKGAFQLFSADNPEEFYKQYVATGTSLVITDPMTVKSEFGKTGGKYENKAYQIDFGNGYATEVVVNNVPKITPKKDVTVSLDPTSENLDGQTVQLYQTFNYRLIGGLIPQNHSEELEDYSFVDDYDQAGDQYTGNYKTFSSLNLTMKDGSVIKAGTDLTSQTTAETDATNGIVTVRFKEDFLQKISLDSPFQAETYLQMRRIAIGTFENTYVNTVNKVAYASNTVRTTTPIPRTPDKPTPIPTPKPKDPDKPETPKEPKVPSPKVEDPSAPIPVSVGKELTTLPKTGTNDATYMPYLGLAALVGFLGLGLAKRKED
B1 was tested, and the “glycan array binding signal (z-score)” value [1] was -1.92, the “glycan array binding signal (z-score)” value (GlcNAc(b1-3)GalNAc) was -0.468 and the “glycan array binding signal (z-score)” value (GlcNAc(b1-3)Man) was 0.161. For the same binder, the “glycan array binding signal (z-score)” value [2] was -0.829, the “glycan array binding signal (z-score)” value [3] was 0.038 and the “glycan array binding signal (z-score)” value [4] was -0.453. The “glycan array binding signal (z-score)” value [5] was -1.07, the “glycan array binding signal (z-score)” value (GlcNAc(b1-4)GlcNAc) was -0.001 and the “glycan array binding signal (z-score)” value [6] was -0.851. For the same binder, the “glycan array binding signal (z-score)” value [7] was 1.01, the “glycan array binding signal (z-score)” value [8] was -1.6 and the “glycan array binding signal (z-score)” value [9] was -1.39. The “glycan array binding signal (z-score)” value [10] was 1.24, the “glycan array binding signal (z-score)” value (GlcNAc(b1-6)GalNAc) was -1.06 and the “glycan array binding signal (z-score)” value (GlcNAc3Prop(b1-4)GlcNAc) was 0.336. The “glycan array binding signal (z-score)” value [11] was 0.472, the “glycan array binding signal (z-score)” value (Kdn(a2-3)Gal(b1-3)GalNAc) was 0.527 and the “glycan array binding signal (z-score)” value (Kdn(a2-3)Gal(b1-3)GlcNAc) was -0.205. For the same binder, the “glycan array binding signal (z-score)” value (Kdn(a2-3)Gal(b1-4)Glc) was 1.04, the “glycan array binding signal (z-score)” value (Kdn(a2-3)Gal(b1-4)GlcNAc) was 0.115 and the “glycan array binding signal (z-score)” value [12] was -1.37. For the same binder, the “glycan array binding signal (z-score)” value (Kdn(a2-6)Gal(b1-4)GlcNAc) was -0.665, the “glycan array binding signal (z-score)” value [13] was 0.605 and the “glycan array binding signal (z-score)” value [14] was 0.022. For the same binder, the “glycan array binding signal (z-score)” value (Man(a1-2)Man(a1-3)Man) was 0.806, the “glycan array binding signal (z-score)” value [15] was -0.574 and the “glycan array binding signal (z-score)” value [16] was 1.48. The “glycan array binding signal (z-score)” value [17] was -1.07, the “glycan array binding signal (z-score)” value [18] was 1.11 and the “glycan array binding signal (z-score)” value [19] was 0.903. For the same binder, the “glycan array binding signal (z-score)” value [20] was 0.792, the “glycan array binding signal (z-score)” value (Man(a1-3)[Man(a1-6)]Man) was 1.4 and the “glycan array binding signal (z-score)” value [21] was -0.43. The “glycan array binding signal (z-score)” value [22] was -0.191, the “glycan array binding signal (z-score)” value [23] was -0.356 and the “glycan array binding signal (z-score)” value [24] was -0.773. The “glycan array binding signal (z-score)” value (Man(a1-6)Man) was 2.65, the “glycan array binding signal (z-score)” value (Man(b1-4)GlcNAc) was -0.696 and the “glycan array binding signal (z-score)” value (Neu5Ac(a2-3)Gal) was -0.182. The “glycan array binding signal (z-score)” value [25] was 0.398, the “glycan array binding signal (z-score)” value [26] was 0.761 and the “glycan array binding signal (z-score)” value [27] was -0.026. The “glycan array binding signal (z-score)” value [28] was 0.579, the “glycan array binding signal (z-score)” value [29] was -1.14 and the “glycan array binding signal (z-score)” value [30] was -0.185.
